Measurements from the supplement of paper PMC10398353.
Counter-ions that a name gives are not always drawn. This is one part of the list. Single values of this set are uncertain.

System: Salmonella enterica serovar Typhimurium ST313 D23580
Experiment: normalized bacterial growth (OD600 20 h minus 0 h, interquartile-mean normalized) (fraction of plate interquartile mean); higher = more bacterial growth (less inhibition)
Settings: LPM (pH 5.8, low phosphate, low Mg2+), concentration: 10 µM, temperature: 37 °C

With Nc1ccc(S(=O)(=O)Nc2ccnn2-c2ccccc2)cc1 [Sulfaphenazole] as the molecule, how does the normalized bacterial growth read?
Its normalized bacterial growth is 1.03.

O=C1OCCN1/N=C/c1ccc([N+](=O)[O-])o1 was tested. Which normalized bacterial growth did it give?
The normalized bacterial growth was 0.252.

With O=C1OCCN1/N=C/c1ccc([N+](=O)[O-])o1 [Furazolidone] as the molecule, how does the normalized bacterial growth read?
Its normalized bacterial growth is 1.41.

NC(=O)c1ccc([N+](=O)[O-])cc1Cl was tested. Which normalized bacterial growth did it give?
Its normalized bacterial growth is 0.974.

How did the normalized bacterial growth turn out when CCOC(=O)Oc1c(OC)cc(C(=O)O[C@@H]2C[C@@H]3CN4CCc5c([nH]c6cc(OC)ccc56)[C@H]4C[C@@H]3[C@H](C(=O)OC)[C@H]2OC)cc1OC was run?
The normalized bacterial growth was 0.815.

For Oc1ccc([C@@H]2CNCc3sccc32)cc1O, which normalized bacterial growth is on record?
The normalized bacterial growth was 1.02.

How did the normalized bacterial growth turn out when O=C(/C=C/C(=O)Oc1ccccc1C(=O)O)Oc1ccccc1C(=O)O was run?
Its normalized bacterial growth is 1.27.

With Cc1ccc([N+](=O)[O-])cc1S(=O)(=O)N(C)C as the molecule, how does the normalized bacterial growth read?
The normalized bacterial growth was 1.01.

With CC(C)C[C@H](NP(=O)(O)O[C@H]1O[C@H](C)[C@@H](O)[C@H](O)[C@@H]1O)C(=O)N[C@@H](Cc1c[nH]c2ccccc12)C(=O)O [Phosphoramidon disodium] as the molecule, how does the normalized bacterial growth read?
Its normalized bacterial growth is 1.11.

How did the normalized bacterial growth turn out when CCC(=O)O[C@]1(C(=O)CCl)[C@@H](C)C[C@H]2[C@@H]3CCC4=CC(=O)C=C[C@]4(C)[C@@]3(F)[C@@H](O)C[C@@]21C was run?
The normalized bacterial growth was 0.985.

CCC(=O)O[C@]1(C(=O)CCl)[C@@H](C)C[C@H]2[C@@H]3CCC4=CC(=O)C=C[C@]4(C)[C@@]3(F)[C@@H](O)C[C@@]21C [Clobetasol propionate] was tested. Which normalized bacterial growth did it give?
Its normalized bacterial growth is 0.85.

Which normalized bacterial growth does the source give for O=C1C[C@@H](c2ccc(O)cc2)Oc2cc(O)cc(O)c21 here?
The normalized bacterial growth was 1.1.

Which normalized bacterial growth does the source give for O=C1C[C@@H](c2ccc(O)cc2)Oc2cc(O)cc(O)c21 [Naringenine] here?
Its normalized bacterial growth is 1.05.

c1ccc2c3c([nH]c2c1)C1C2CCC(C4CCCNC42)N1CC3 (stereo not given) [Nitrarine dihydrochloride] was tested. Which normalized bacterial growth did it give?
Its normalized bacterial growth is 0.47.

With CN1CC[C@]23c4ccccc4N[C@H]1[C@]21CCN(C)[C@H]3Nc2ccccc21 [Calycanthine] as the molecule, how does the normalized bacterial growth read?
The normalized bacterial growth was 0.954.

How did the normalized bacterial growth turn out when COc1cc(-c2coc3cc(O[C@@H]4O[C@H](CO)[C@@H](O)[C@H](O)[C@H]4O)c(OC)c(O)c3c2=O)cc(O)c1OC was run?
The normalized bacterial growth was 1.09.

With O=c1c(-c2ccc(O)cc2)coc2cc(O[C@@H]3O[C@H](CO)[C@@H](O)[C@H](O)[C@H]3O)ccc12 as the molecule, how does the normalized bacterial growth read?
Its normalized bacterial growth is 1.08.

O=c1c(O)c(-c2ccccc2)oc2cc(O)ccc12 was tested. Which normalized bacterial growth did it give?
The normalized bacterial growth was 0.973.

With COc1ccc(C2CNC(=O)C2)cc1OC1CCCC1 (stereo not given) [Rolipram] as the molecule, how does the normalized bacterial growth read?
Its normalized bacterial growth is 1.1.

With CC(C)C[C@@H](NC(=O)[C@H](C)NC(=O)CNC(=O)[C@@H](NC=O)C(C)C)C(=O)N[C@@H](C)C(=O)N[C@@H](C(=O)N[C@H](C(=O)N[C@H](C(=O)N[C@@H](Cc1c[nH]c2ccccc12)C(=O)N[C@H](CC(C)C)C(=O)N[C@@H](Cc1c[nH]c2ccccc12)C(=O)N[C@H](CC(C)C)C(=O)N[C@@H](Cc1c[nH]c2ccccc12)C(=O)N[C@H](CC(C)C)C(=O)N[C@@H](Cc1c[nH]c2ccccc12)C(=O)NCCO)C(C)C)C(C)C)C(C)C as the molecule, how does the normalized bacterial growth read?
Its normalized bacterial growth is 1.18.

CC[N+]1(C)C2CCC1CC(OC(=O)C1CCC(C(=O)OC3CC4CCC(C3)[N+]4(C)CC)(c3ccccc3)c3ccccc31)C2 (stereo not drawn) [beta- Belladonnine dichloroethylate] was tested. Which normalized bacterial growth did it give?
Its normalized bacterial growth is 0.915.

With CC(/C=C/c1cccc(Oc2ccc(F)cc2)c1)N(O)C(N)=O (stereo not given) as the molecule, how does the normalized bacterial growth read?
Its normalized bacterial growth is 0.837.

Which normalized bacterial growth does the source give for NC(=O)C(c1ccccc1)(c1ccccc1)[C@@H]1CCN(CCc2ccc3c(c2)CCO3)C1 here?
Its normalized bacterial growth is 1.16.

How did the normalized bacterial growth turn out when CCCNCC(O)COc1ccccc1C(=O)CCc1ccccc1 (stereo not given) [Propafenone hydrochloride] was run?
Its normalized bacterial growth is 0.924.

With CCCCCCCCCCCCCCCCCC(=O)OC(CC(=O)O)C[N+](C)(C)C (racemic) [DL-Stearoylcarnitine chloride] as the molecule, how does the normalized bacterial growth read?
The normalized bacterial growth was 1.1.

How did the normalized bacterial growth turn out when COc1cc(/C=C(\C#N)C(=O)Nc2nnc(C(F)(F)F)s2)ccc1OCc1ccc(C(F)(F)F)cc1C(F)(F)F was run?
The normalized bacterial growth was 1.12.

With O=[N+]([O-])c1cccc2cn[nH]c12 [7-Nitroindazole] as the molecule, how does the normalized bacterial growth read?
Its normalized bacterial growth is 1.02.

With COc1ccccc1OCC(O)CN1CCN(CC(=O)Nc2c(C)cccc2C)CC1 (stereo not given) as the molecule, how does the normalized bacterial growth read?
Its normalized bacterial growth is 1.

How did the normalized bacterial growth turn out when COc1ccccc1OCC(O)CN1CCN(CC(=O)Nc2c(C)cccc2C)CC1 (stereo not given) [Ranolazine dihydrochloride] was run?
The normalized bacterial growth was 0.982.

C[C@H]1C[C@@H]2[C@H]([C@@H](O)C[C@@]3(C)[C@H]2CC[C@]3(O)C(=O)CO)[C@@]2(C)C=CC(=O)C=C12 was tested. Which normalized bacterial growth did it give?
The normalized bacterial growth was 1.03.

C[C@H]1C[C@@H]2[C@H]([C@@H](O)C[C@@]3(C)[C@H]2CC[C@]3(O)C(=O)CO)[C@@]2(C)C=CC(=O)C=C12 ["Methylprednisolone, 6-alpha"] was tested. Which normalized bacterial growth did it give?
Its normalized bacterial growth is 1.09.

Which normalized bacterial growth does the source give for CS(=O)(=O)CCCCN=C=S here?
Its normalized bacterial growth is 0.881.

For CC(=O)N[C@@H](Cc1c[nH]c2ccccc12)C(N)=O, which normalized bacterial growth is on record?
The normalized bacterial growth was 1.07.

How did the normalized bacterial growth turn out when CC(C)NCC(O)c1ccc2ccccc2c1 (stereo not given) was run?
The normalized bacterial growth was 1.06.

For CC(=O)O[C@]1(C(C)=O)CC[C@H]2[C@@H]3C[C@H](C)C4=CC(=O)CC[C@]4(C)[C@H]3CC[C@@]21C, which normalized bacterial growth is on record?
Its normalized bacterial growth is 0.938.
